The values are deposited in ChEMBL (CHEMBL3988442, “University of Dundee, Small-Polar-MMV Screening Library” (2021)).

Mtb cholesterol medium: 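Phenotypic screen: M. tuberculosis growth, cholesterol and DPPC medium, 4 days; the read-out is not stated. Tested at 50 µM. The record gives no direction; compounds that gave an IC50 in retests scored well above the rest, so higher reads as more growth inhibition. About 69,000 compounds were tested under these conditions; 0.54% (about 370) showed 50% or more at least once.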
Mtb glucose medium: 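Growth of Mycobacterium tuberculosis over 3 days (7H9 medium with glucose and tyloxapol); the read-out is not stated. Concentration: 50 µM. The record gives no direction; compounds that gave an IC50 in retests scored well above the rest, so higher reads as more growth inhibition. Size under these conditions: about 69,000 compounds, about 760 of them at 50% or above in at least one test.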

Results are given as percent effect. How 0% and 100% were set is not recorded. Most values in the screen are low, and negative values occur. This is an unselected part of the compounds tested. Two or more numbers in one place are separate tests of the same structure; such repeats can differ widely.

For NC(=O)c1cccc(-c2cnc(C3CCCNC3)cn2)c1 (configuration not stated) the result was Mtb cholesterol medium: -5.171% & -13.65%; Mtb glucose medium: -12.08%. COc1cc2cc(C(=O)N[C@@H](C)C(=O)O)n(C)c2c(OC)c1OC read Mtb cholesterol medium: -14.84%; Mtb glucose medium: -2.687%. For CCn1cc(CN2CCN(Cc3cc(C)cc(C)c3)C(=O)C2)cc1C#N the result was Mtb cholesterol medium: -8.651%; Mtb glucose medium: 7.169%. c1coc(-c2noc(CN3CCc4c(ncn4C4CC4)C3)n2)c1 gave Mtb cholesterol medium: -9.179%; Mtb glucose medium: -0.7819% & -4.667%.

Result for O=C(N1CCCCC1)N1CCN(CC(O)c2ccccc2)CC1 (configuration not stated) was Mtb cholesterol medium: -1.234%; Mtb glucose medium: -30.05% & -0.04921%. For CCc1ccccc1OC1CN(C(=O)c2cccs2)C1 the result was Mtb cholesterol medium: 46.05% & 48.79%; Mtb glucose medium: 36.7%. O=C(O)C(F)(F)F.[H][C@]12CCN(Cc3ccc(C)s3)CC[C@]1([H])N(S(C)(=O)=O)CCO2 gave Mtb cholesterol medium: -7.275%; Mtb glucose medium: -11.57%. For O=C(O)C(F)(F)F.[H][C@@]12CN(C(=O)[C@H]3CCCO3)C[C@]1([H])C(=O)N(Cc1csc(C)n1)C2 the result was Mtb cholesterol medium: -4.056%; Mtb glucose medium: 11.82%.

For Cc1nnc(NCc2cccnc2N(C)C)c(C#N)c1C the result was Mtb cholesterol medium: -12.67%; Mtb glucose medium: 5.053%. With Cc1cc(NC(=O)CN(C)C2CCCN(c3cccnn3)C2)n(C)n1 (configuration not stated) the screen gave Mtb cholesterol medium: -2.435%; Mtb glucose medium: 6.631%. COc1ccc(OCc2cc(C(=O)N3CCOCC3)n[nH]2)c(Cl)c1 read Mtb cholesterol medium: 3.888%; Mtb glucose medium: 2.358%. With CNCC[C@H]1CC(C)(C)Oc2ccc(OCC3CC3)cc21 the screen gave Mtb cholesterol medium: -12.26%; Mtb glucose medium: -11.54%.

[H][C@]12CC[C@]([H])(CN(C(=O)Cc3nonc3C)C1)N(Cc1ccccc1)C2=O gave Mtb cholesterol medium: 8.925%; Mtb glucose medium: -33.13%. Result for O=C(CCc1cn[nH]c1)N1C[C@@H](CN2CCCCCC2)[C@@H](CO)C1 was Mtb cholesterol medium: 4.749%; Mtb glucose medium: 9.864%. CC(C)(NC(=O)c1cnc(C(C)(C)C)s1)C(N)=O gave Mtb cholesterol medium: -32.24% & -10.81%; Mtb glucose medium: -37.23%. For O=C(CCOCc1ccccc1)NS(=O)(=O)N1CCOc2ccccc21 the result was Mtb cholesterol medium: -3.821%; Mtb glucose medium: -29.09% & -0.5311%.

For Cc1ccc(C(=O)Nc2cn[nH]c2)cc1F the result was Mtb cholesterol medium: -18.78%; Mtb glucose medium: -21.88%. With O=C(c1ccnc(N2CCOC(C(F)(F)F)C2)c1)N1CCOCC1 (configuration not stated) the screen gave Mtb cholesterol medium: -11.17%; Mtb glucose medium: 18.24%. Cc1cc(C(=O)NCC(c2ccccc2Cl)N2CCOCC2)on1 (configuration not stated) read Mtb cholesterol medium: -11.54%; Mtb glucose medium: -21.82% & 2.795%. For Cc1nn(C)c(C)c1CCC(=O)Nc1nnc(C2CC2)s1 the result was Mtb cholesterol medium: 6.508%; Mtb glucose medium: 0.3792%.

With CCN(Cc1ccc2c(c1)OCCO2)C(=O)c1ccc(C)[nH]c1=O the screen gave Mtb cholesterol medium: 16.07%; Mtb glucose medium: 40.56%. Result for Cc1ncn(CCNC(=O)Nc2ccc(OC(F)(F)F)cc2)c(=O)c1C was Mtb cholesterol medium: -18.41%; Mtb glucose medium: 13.84%. With [H][C@]12CN(C(C)=O)CCN1C[C@H](c1ccccc1)[C@H]2C(=O)OCC the screen gave Mtb cholesterol medium: -5.519%; Mtb glucose medium: 13.08%. Result for Cl.FC(F)Oc1ccc(CNCc2cc(Cl)c3c(c2)OCO3)cc1 was Mtb cholesterol medium: 25.61%; Mtb glucose medium: 4.607%.

Cc1ccccc1CNC(C)c1ccc(OCC(=O)NC2CC2)cc1 (configuration not stated) read Mtb cholesterol medium: -22.32%; Mtb glucose medium: -39.56%. With CCn1nc(C)c2ncnc(NCCN3CCOCC3)c21 the screen gave Mtb cholesterol medium: 1.742%; Mtb glucose medium: -18.12%. For CC(C)c1noc(C(C)N2CCN(Cc3nc4ccccc4[nH]3)CC2)n1 (configuration not stated) the result was Mtb cholesterol medium: 2.484%; Mtb glucose medium: 4.008% & -4.927%. CCC(O)CN1CCN(C(=O)c2cccc3c2OCC(=O)N3)CC1 (configuration not stated) read Mtb cholesterol medium: -12.95%; Mtb glucose medium: -3.074% & -11.14%.

Result for CCc1nc(CN2CCCCC2C(N)=O)cs1 (configuration not stated) was Mtb cholesterol medium: -19.56%; Mtb glucose medium: 16.17%. CCn1nccc1CNC(=O)Cn1cc2c(n1)c(C)nn2C(C)C read Mtb cholesterol medium: -22.15%; Mtb glucose medium: 6.89%. COc1ccc(-c2noc(CN3CCCC3Cn3cccn3)n2)cc1 (configuration not stated) read Mtb cholesterol medium: 13.57%; Mtb glucose medium: 12.85%.